Several values for one entry are separate records, joined by “and”; a condition that tells them apart may be missing. Equal values may be shown once. Inconclusive means that the source gave no clear call. Such entries were picked first, then a sample of the others. Potencies beside an inconclusive call are fits to weak or partial responses and may not hold up. Activity calls are given as the source filed them. The calls were made as follows: active = hit-call score of the fitted dose curve at least 0.9, where 1 is the maximum; inconclusive = response in the unintended direction; inactive = score below 0.9.
assay: CCTE_Shafer_MEA_dev_AB: CCTE's Alamar Blue Assay for Cytotoxicity in the Neural Network Formation Assay, Shafer Lab (AID 2284083);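 also: twelve days of exposure from plating with re-dosing on DIV 5 and 9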
How it was run: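 Primary rat cortical neurons on PEI-coated 48-well MEA plates, 1.5 x 10^5 cells/well in laminin drop; compound exposure from day 0 of plating for twelve days, renewed at medium changes on DIV 5 and 9. Viability read as resazurin reduction by fluorescence, relative to DMSO.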

Compound	AC50
CC(C)(c1ccc(O)cc1)c1ccc(O)cc1	inconclusive: 2.98 µM and inconclusive: 4.07 µM and inconclusive: 15 µM
c1ccc2ccccc2c1	inconclusive: 9.95 µM
COCCO	inconclusive: 10.4 µM
CC1(C)S[C@@H]2[C@H](NC(=O)COc3ccccc3)C(=O)N2[C@H]1C(=O)O	inconclusive: 15 µM

assay: CCTE_Shafer_MEA_acute_LDH: CCTE's Lactate Dehydrogenase Assay for Cytotoxicity in the Neural Acute Assay, Shafer Lab (AID 2284086);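 also: active means LDH release rises above DMSO vehicle level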
How it was run: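 Released lactate dehydrogenase, read at 490 nm, indicated cytotoxicity after acute 40-min compound treatment of rat cortical neuron networks grown on 48-well MEA plates.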

Compound	AC50	outcome
CCN(Cc1cccc(S(=O)(=O)O)c1)c1ccc(C(=C2C=CC(=[N+](CC)Cc3cccc(S(=O)(=O)O)c3)C=C2)c2ccccc2S(=O)(=O)[O-])cc1	inconclusive: 12.9 µM	–
CC(C)(C)c1cc(/C=C2\SC(N)=NC2=O)cc(C(C)(C)C)c1O	inconclusive: 10 µM	–
CN(C)c1ccc(C(=C2C=CC(=[N+](C)C)C=C2)c2ccc(N(C)C)cc2)cc1	active: 7.76 µM	–
c1ccc2occc2c1	–	inactive
O=C(O)c1ccccc1-n1cc(C(=O)O)c(=O)c2cc(Nc3c(F)cc(F)cc3Cl)c(Cl)cc21	–	inactive
COC(=O)c1ccccc1C(=O)O	inconclusive: 0.154 µM	–
Cc1c(C)c2c(c(C)c1O)CCC(C)(COc1ccc(CC3SC(=O)NC3=O)cc1)O2 (stereo not given)	inconclusive: 20 µM	–
CC[C@@H]1C[C@H](N(Cc2cc(C(F)(F)F)cc(C(F)(F)F)c2)C(C)=O)c2cc(C(F)(F)F)ccc2N1C(=O)OC(C)C	inconclusive: 20 µM	–
